Experimental findings from paper PMC7862700 are described below.

The list shows a part of the results, in another mix than the full data. At the low end of the ranking the order means little.

The target of one test is T1, ELK3 (UniProt P41970).
T1 sequence: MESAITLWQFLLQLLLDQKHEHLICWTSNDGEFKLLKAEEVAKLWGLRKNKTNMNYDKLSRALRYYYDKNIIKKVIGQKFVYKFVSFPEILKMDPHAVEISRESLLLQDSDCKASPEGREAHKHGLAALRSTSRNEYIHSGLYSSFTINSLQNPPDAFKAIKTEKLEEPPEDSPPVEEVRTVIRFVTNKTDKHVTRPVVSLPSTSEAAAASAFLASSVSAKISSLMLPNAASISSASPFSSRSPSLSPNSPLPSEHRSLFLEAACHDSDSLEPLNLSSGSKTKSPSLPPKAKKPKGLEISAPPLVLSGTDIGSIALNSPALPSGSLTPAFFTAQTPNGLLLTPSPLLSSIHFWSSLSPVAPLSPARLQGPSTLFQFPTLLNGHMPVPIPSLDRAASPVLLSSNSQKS
The test can be described thus: DAPPL (digital affinity profiling via proximity ligation, sequencing). The note with it: 10 mM Tris-HCl pH 7.5, 50 mM NaCl, 1 mM DTT, 4% glycerol, room temperature, 30 min; GST-TFs on glutathione beads, 16-mer random dsDNA library, 0.1% …; high values mean tight binding; double strand, one strand shown; scale: fold enrichment (6-mer frequency, TF over GST control).
The sequence CTATCA registered a binding signal of 1.11.
Still for that read-out and setting: next, CAATGG: 0.933; GGTCAC: 0.998.
The same measure, in the same setting: the result for AGATGT reads 0.958.
In the case of GCAACA, the binding signal worked out at 0.963.
In turn, TATTAG displayed a binding signal of 1.18.
Sequence ATCACG returned a binding signal of 0.955.
Consider CGTAGC, for which the binding signal amounted to 0.972.
The same measure, in the same setting: the result for ACTGTA reads 1.04.
Still for that read-out and setting: next, AACGGT: 0.915.
Still for that read-out and setting: the result for GTTGCC reads 1.
CATGTT displayed a binding signal of 0.955.
On the same count and under the same terms, next, GCGATC: 0.989.
With AGAACA, the binding signal worked out at 0.973.
For the sequence TAGGCA, the binding signal is 0.983.
Same read-out and setting: next, AAGCCC: 0.962; CCGCAA: 1.34.
Sequence CAAGTT came in with a binding signal of 1.03.
On the same count and under the same terms, the result for CTGGTG reads 1.15; that for TCGGCT, 0.822.
The same measure, in the same setting: the result for TTAAGA reads 1.02; that for GCAATC, 0.915; that for GGGAAA, 0.996.
The same measure, in the same setting: next, CACCTG: 0.949; CAGCCT: 0.954; GGCCCT: 0.997.
CAAAAG: the binding signal was 0.937.
TTGAAG displayed a binding signal of 0.906.
Still for that read-out and setting: the result for CACCCA reads 0.963.
Still for that read-out and setting: next, GACTGC: 0.913.
The same measure, in the same setting: the result for TTCCGA reads 1.68; that for CCTGCG, 1.22.
As to CATGCA, the binding signal was 1.02.
The same measure, in the same setting: next, GACCGC: 0.859.
The same measure, in the same setting: the result for TGCCCA reads 0.904.
As for TGAAGC, the binding signal turned out to be 0.944.
Still for that read-out and setting: next, CGTTGT: 0.865; GCGTAT: 0.857.
Still for that read-out and setting: the result for CCGGCG reads 1.02; that for AGATAA, 0.978.

Another test concerns the target T2, SPIC (UniProt Q8N5J4).
T2 sequence: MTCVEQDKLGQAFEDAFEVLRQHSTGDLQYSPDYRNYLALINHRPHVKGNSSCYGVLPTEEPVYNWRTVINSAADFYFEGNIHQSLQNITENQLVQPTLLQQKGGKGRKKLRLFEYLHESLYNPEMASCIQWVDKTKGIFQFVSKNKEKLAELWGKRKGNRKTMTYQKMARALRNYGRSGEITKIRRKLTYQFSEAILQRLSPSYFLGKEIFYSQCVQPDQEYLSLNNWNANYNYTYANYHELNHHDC
Described as above. The note with it: 10 mM Tris-HCl pH 7.5, 50 mM NaCl, 1 mM DTT, 4% glycerol, room temperature, 30 min; GST-TFs on glutathione beads, 16-mer random dsDNA library, 0.1% …; high values mean tight binding; double strand, one strand shown; scale: fold enrichment (6-mer frequency, TF over GST control).
Consider CTATCA, for which the binding signal worked out at 0.924.
Still for that read-out and setting: the result for CAATGG reads 0.929; that for GGTCAC, 0.982; that for AGATGT, 0.96.
The same measure, in the same setting: the result for GCAACA reads 0.877; that for TATTAG, 1.13; that for ATCACG, 1.04.
CGTAGC registered a binding signal of 0.935.
On the same count and under the same terms, the result for ACTGTA reads 1.24.
On the same count and under the same terms, the result for AACGGT reads 0.994.
As to GTTGCC, the binding signal was 0.846.
The same measure, in the same setting: next, CATGTT: 0.952.
On the same count and under the same terms, next, GCGATC: 0.977.
Same read-out and setting: next, AGAACA: 0.967; TAGGCA: 1.11.
Regarding AAGCCC, the binding signal turned out to be 0.961.
On the same count and under the same terms, next, CCGCAA: 1.42; CAAGTT: 0.989; CTGGTG: 0.827.
On the same count and under the same terms, next, TCGGCT: 0.961; TTAAGA: 1.12.
In the case of GCAATC, the binding signal was 0.992.
Same read-out and setting: the result for GGGAAA reads 0.988; that for CACCTG, 0.923; that for CAGCCT, 0.965.
On the same count and under the same terms, next, GGCCCT: 1.11.
On the same count and under the same terms, next, CAAAAG: 0.975.
The sequence TTGAAG came in with a binding signal of 0.894.
On the same count and under the same terms, next, CACCCA: 0.915.
The same measure, in the same setting: next, GACTGC: 0.98; TTCCGA: 1.61; CCTGCG: 1.12.
Still for that read-out and setting: the result for CATGCA reads 0.961; that for GACCGC, 0.931; that for TGCCCA, 0.961.
Turning to TGAAGC, the binding signal came out at 0.808.
For the sequence CGTTGT, the binding signal was determined as 0.998.
Same read-out and setting: next, GCGTAT: 1.07; CCGGCG: 0.864.
Consider AGATAA, for which the binding signal stood at 0.953.

A further test addresses T3, ETS2 (UniProt P15036).
T3 sequence: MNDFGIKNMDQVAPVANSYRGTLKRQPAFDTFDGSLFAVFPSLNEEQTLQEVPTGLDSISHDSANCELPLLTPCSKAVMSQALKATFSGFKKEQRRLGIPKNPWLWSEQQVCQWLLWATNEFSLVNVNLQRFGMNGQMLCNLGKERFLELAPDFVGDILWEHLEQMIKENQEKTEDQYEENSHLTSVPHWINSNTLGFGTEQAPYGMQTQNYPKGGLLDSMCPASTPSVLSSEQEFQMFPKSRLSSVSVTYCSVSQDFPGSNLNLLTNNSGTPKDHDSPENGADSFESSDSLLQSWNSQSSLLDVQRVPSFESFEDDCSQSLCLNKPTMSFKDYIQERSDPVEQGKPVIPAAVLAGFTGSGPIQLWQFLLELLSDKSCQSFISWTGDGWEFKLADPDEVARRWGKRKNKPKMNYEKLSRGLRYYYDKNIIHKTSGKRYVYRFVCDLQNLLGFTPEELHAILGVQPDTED
The description is as above. To be noted: 10 mM Tris-HCl pH 7.5, 50 mM NaCl, 1 mM DTT, 4% glycerol, room temperature, 30 min; GST-TFs on glutathione beads, 16-mer random dsDNA library, 0.1% …; high values mean tight binding; double strand, one strand shown; scale: fold enrichment (6-mer frequency, TF over GST control).
With CTATCA, the binding signal worked out at 1.04.
On the same count and under the same terms, the result for CAATGG reads 0.961; that for GGTCAC, 0.976.
On the same count and under the same terms, the result for AGATGT reads 0.995; that for GCAACA, 0.979; that for TATTAG, 1.06.
ATCACG yielded a binding signal of 0.927.
On the same count and under the same terms, the result for CGTAGC reads 0.993.
Still for that read-out and setting: next, ACTGTA: 0.986.
Still for that read-out and setting: the result for AACGGT reads 0.937; that for GTTGCC, 0.961; that for CATGTT, 1.01.
As to GCGATC, the binding signal is 0.915.
The same measure, in the same setting: next, AGAACA: 0.988; TAGGCA: 0.986; AAGCCC: 0.974.
The same measure, in the same setting: next, CCGCAA: 1.47; CAAGTT: 1.13.
Same read-out and setting: next, CTGGTG: 0.93; TCGGCT: 0.9.
The sequence TTAAGA came in with a binding signal of 0.934.
Regarding GCAATC, the binding signal was 1.04.
Same read-out and setting: next, GGGAAA: 0.994; CACCTG: 0.987; CAGCCT: 0.965.
As for GGCCCT, the binding signal turned out to be 0.99.
Same read-out and setting: next, CAAAAG: 1.04; TTGAAG: 0.942.
On the same count and under the same terms, the result for CACCCA reads 0.951; that for GACTGC, 0.987; that for TTCCGA, 1.67.
The same measure, in the same setting: next, CCTGCG: 1.27.
The sequence CATGCA showed a binding signal of 1.06.
On the same count and under the same terms, the result for GACCGC reads 0.878.
As for TGCCCA, the binding signal was 1.12.
In the case of TGAAGC, the binding signal was 0.996.
The same measure, in the same setting: the result for CGTTGT reads 0.925; that for GCGTAT, 0.91.
The same measure, in the same setting: the result for CCGGCG reads 0.977; that for AGATAA, 1.04.
